Values from PubChem BioAssay AID1259254 (NCATS, 2017).
Screen: 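Finding genes that stop cells copying their DNA twice in one cycle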 (primary screen). Cell system: human HCT116 colorectal cancer cells. Knock-down reagent: single siRNA against human genes. Timing: 3 days. Read-out: 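Imaged Hoechst DNA stain sorts each cell into a cycle phase by DNA amount; per plate, G2 fraction set to 0% for non-targeting and 100% for GMNN siRNA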. Direction: G2 robust z-score: higher = more G2 cells, more excess DNA replication. Call rule: 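An siRNA counts as active if its G2 robust z-score lies at least 5 MADs above the screen median; here such calls match roughly 38% of GMNN control or more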.
This is a random part of about 59,000 deposited reagents. In the full data, about 1,550 (2.6%) got an active call. 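G2 share is only a proxy for re-replication; each gene was hit by three separate siRNAs, and active genes were retested.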 The numbers tell different reagents against one gene apart. Further read-outs or replicates are left out here. Not given: the amount of reagent.

ODAD4 #1 → G2 robust z-score = 11.6; activity call = active
ODAD4 #2 → G2 robust z-score = 2.15; activity call = inactive
ODAD4 #3 → G2 robust z-score = 0.329; activity call = inactive
ADRM1 #1 → G2 robust z-score = 3.03; activity call = inactive
ADRM1 #2 → G2 robust z-score = -0.17; activity call = inactive
ADRM1 #3 → G2 robust z-score = -0.215; activity call = inactive
MARK3 #1 → G2 robust z-score = -1.49; activity call = inactive
MARK3 #2 → G2 robust z-score = -0.454; activity call = inactive
MARK3 #3 → G2 robust z-score = -0.297; activity call = inactive
ANHX #1 → G2 robust z-score = -0.113; activity call = inactive
ANHX #2 → G2 robust z-score = -0.282; activity call = inactive
ANHX #3 → G2 robust z-score = -0.0504; activity call = inactive

Records listed above marked active (1):
ODAD4 #1 → G2 robust z-score = 11.6; activity call = active

Continued:
AFM #1 → G2 robust z-score = 8.34; activity call = active
AFM #2 → G2 robust z-score = -0.743; activity call = inactive
AFM #3 → G2 robust z-score = 0.222; activity call = inactive
CUBN #1 → G2 robust z-score = -0.433; activity call = inactive
CUBN #2 → G2 robust z-score = -0.0353; activity call = inactive
CUBN #3 → G2 robust z-score = 3.23; activity call = inactive
